Data published in PubChem BioAssay AID1347423 (Functional Genomics Laboratory (NCATS/FGL), 2020).
About 210 (0.4%) of roughly 52,000 sequences were called active.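 The calls were made as follows: active = gene whose silencing raises cell survival under the drug, median off-target-corrected z-score across its silencing RNAs 2 or more; inactive = the rest.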 The list shows a part of the results.

Assay: Resistance to Poly (ADP-Ribose) Polymerase inhibitor: Gene Identification via Genome-wide siRNA Screen
Conditions: mouse BRCA2 R2336H ES cells, olaparib, CellTiter-Glo viability; stronger effect = higher value
How it was run: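 Genome-wide siRNA screen (3 siRNAs/gene, 20 nM) in mouse ES cells carrying hypomorphic BRCA2 R2336H; olaparib 500 nM added 48 h post-transfection, CellTiter-Glo viability 72 h later. Normalized to plate-median negative control; MAD z-scores, gene median, seed-adjusted.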

Sequence | z-score
CCGUUGUAAUAACAUUGGCTT against Lipg | inactive: 0.203
GGAGUGAAGGUUCAGAUCCTT against Accn1 | inactive: -1.5
GGAAAACAACACGAUGAAATT against Tex13 | inactive: -0.431
GGCCUACCUGGUUGAGAAATT against Spam1 | inactive: -0.147
GCCACCAUUAAAAGACUGATT against Gdnf | inactive: -0.153
GGAGUAUCAUUUCAUCUCATT against Mpp1 | inactive: 0.0567
GGUAUUGUGAAACGUACACTT against Ky | inactive: 0.992
GGGCUUGAAAUUGAAAUGUTT against Ccl9 | inactive: -0.697
GCAAUUAGACAGCAUUCAUTT against Il16 | inactive: -0.515
GGACAAGAAUCCUUGAGUGTT against Nxt1 | inactive: 0.162
GGAUUGACAAAUAGCUUGUTT against B430209F14Rik | inactive: -0.636
GGUUAAAAAUGCCAUUAGATT against Olfr1233 | inactive: 0.0788
GGACUGUUUGAACAUCUGGTT against Tomm7 | inactive: 0.303
GGCUGUGGUAUUUUUGGUUTT against AW146242 | inactive: 0.638
GGGAAUACGGAACCUUCUUTT against Olfr683 | inactive: 1.13
GGAGGAAAGAAGUCCUACATT against Ear5 | inactive: -2.63
GGAAAAAUUGCUUCUGACCTT against Rad51l1 | inactive: -0.179
GGAUGAGUUUGAACUAUCCTT against Kcnip2 | inactive: 0.109
GGAGGUAUACAUCACCACATT against Lrdd | inactive: -0.0951
GGUUGACACUGUUGCUUAUTT against Ofcc1 | inactive: 1.07
GGUGCACUCGUACUUGACUTT against Mgat4b | inactive: 0.429
GGAAGGUGAUGAAGGAUCGTT against 3110048E14Rik | inactive: 0.118
CCUCUUAUCUCACAUGCUATT against Ica1 | inactive: 2.23
GCGGCUCAAACUCAUUUUGTT against LOC225594 | inactive: 0.828
GGAACAGGCACAGAAAAUUTT against 4833417A11Rik | inactive: -1.8
GGAGAACACAAAGUUAUACTT against Prpf39 | inactive: 0.186
GGACAACACUGUCAAUCAUTT against Olfr922 | inactive: -2.38

Sequence | z-score
GGAUAUUUGAUCACUGUACTT against 6430701C03Rik | inactive: 1.17
GGACAUGACCAAAAGGCUGTT against 3110006P09Rik | active: 2.27
GGGCAGAUUGACUUUUUUGTT against Rragd | inactive: -1.03
GGAAAAACUCUUCUUCACGTT against Nphs1 | inactive: 0.0964
GGCAGAGGAGUCCUGUAAATT against Pcaf | inactive: 2.55
GGUACGACAAGGAUUGGAGTT against Arhgap18 | inactive: -0.992
GGAUUUCUAGUCUCCUCUUTT against Slc25a11 | inactive: -0.512
CGAUUUUACCAACCGCUGCTT against Chtf18 | inactive: 0.754
GGCAUACCAAAGGUAUGAUTT against Serpine1 | inactive: -0.435
GGUCAAAUGAAAGCUCAAGTT against Ppm1d | inactive: -2.67
GGCCUCAAGAAUGUAACAGTT against Psmf1 | inactive: -0.851
GCCUAUGUACUGGUCAAGCTT against C630028L02Rik | inactive: 2.03
GGUCAAUUCUUUGUGAUGATT against Usf1 | inactive: -0.31
CCUAAGGUAGUUUUACCCUTT against Shbg | inactive: -0.176
CCUUUGGAUCAUGCUACAATT against Csnb | inactive: 0.32
GGAUCUUUGCCAAGAAAUUTT against Fmo2 | inactive: 1.14
GCAUCGAUCUUUCACCUGUTT against Htr4 | inactive: 0.512
GGCUCUUAGGACGUGUAUATT against 3110004H13Rik | inactive: -1.28
GGACAACCAGCUCAUUGUGTT against Kai1 | inactive: -0.52
GGCCUUUUACAAUGAACAUTT against Itgax | inactive: 0.211
GCAAGACCCUUCGAGUGAATT against Nkd2 | inactive: -0.0988
GCUGAAGUAGGGUUUAUUATT against Gdap10 | inactive: 0.524
GGAAAUUCAGAUGCUGAAGTT against Rab6ip2 | inactive: 1.15
GGUCACCUACUGCUCAAACTT against Dnajc3 | inactive: 0.151
GCUUCUUGAUGCUACUCAATT against Centb1 | inactive: -0.851
GCCUGUGUGCUGUUGUGUUTT against Krtap5-1 | inactive: 0.015
CCAAAAAGAUUUGGAUCUCTT against Nr2f6 | inactive: -0.318

Sequence | z-score
UGCGGUUGAAUUCUCCCAUTT against MGC62475 | inactive: 0.593
GGAUGAUAUGGAUUCACAATT against Clgn | inactive: 1.64
GUGAACCACACUGUCUGAGTT against Pr1 | inactive: -1.89
GCACCUAGUUAAUGCUGCCTT against 5830404H04Rik | inactive: 0.213
GCUGUAAUGCUAAUGACAUTT against Gpr22 | inactive: 0.389
GACGCAAGCAGCAUUUUAUTT against C030046I01Rik | inactive: 1.2
GGAUACAGAGUAUUUCAAGTT against Rtkn | inactive: 0.812
CCAGAAACACUAGUAAAGGTT against Dppa3 | inactive: -1.13
GGACUUAAAACAGAAAGCATT against Ccdc5 | inactive: -2.3
GAGAUGUCCGAAAUGCCAATT against BC017612 | inactive: 1.7
GGAUCUGACAGCUCAUUUUTT against Casp7 | inactive: 0.882
GGCACUAAGACCUGUUUUGTT against Msx2 | inactive: 1.33
GCCAAAGUACUCUUACAAGTT against Tfip11 | inactive: -0.826
GGCUCUGAGUACCUGUGGATT against Olfr646 | inactive: -0.199
GGUUUUAGAUAUUAACCUGTT against Hnrpc | inactive: 1.89
CCAAUAAGGUCUCUGCCCATT against Trit1 | inactive: -1.53
CGAAUUGUCUUUCUCACUATT against Olfr769 | inactive: -0.00732
GGCUUUGUCUACACUUUCATT against Olfr1308 | inactive: -0.973
GGAUUUCAGUGUCUAGAAGTT against Frmd4b | inactive: -0.81
GGAGAUUUUGGAAAAAGCATT against D12Ertd771e | inactive: 0.064
CCACUUAUAACUCAUAGUUTT against AI788959 | inactive: 0.166
GCAUGUACCAAGGUUGAUGTT against Klhl17 | inactive: -0.0563
GGGUCUUUAUAAACUCAGUTT against Tyr | inactive: 0.199
GGGUGAACUUACAGAAAUATT against Olfr214 | inactive: 0.0586
GUCGCACCGUAUUCACUGATT against Barx1 | inactive: 1.49
CCUAAGGAGGAUGCGUAUGTT against Mphosph10 | inactive: 0.398
GGGAAUUCACAGUCAGCCUTT against Il27 | inactive: -1.52

Sequence | z-score
GGUUCUUGGUGAUGAUGAGTT against 9030416H16Rik | inactive: -3.23
GCUUCAGUAUUUAUUUGCUTT against Usp28 | inactive: -0.071
GGACAACGAUAGCUAACCUTT against BC014795 | inactive: 0.0457
CCCACUGGUUAUAAAUGAATT against C530044N13Rik | inactive: -0.99
GGGCAUGGAACAAGAUGUCTT against Nckipsd | inactive: -1.4
GGUUAUAAACCAGAAGAGUTT against Mill2 | inactive: 0.18
UGGGAUCUUCGUUUAAUGATT against Syncrip | inactive: 0.504
GGUUACAUAUCAGUUGAAATT against Slc35a3 | inactive: 0.218
GGGUAGGUAUCAAAAUAAUTT against 6030452D12Rik | inactive: -0.189
GGAUCUGCUGGAAUCUCAGTT against Zfp261 | inactive: 1.68
GGACAAAUCUUUGUUUAGCTT against Plscr3 | inactive: 0.279
GGAAUUUCACUAUAAUCGCTT against Hoxb6 | inactive: -0.191
GGACUCUCAAUGAUGAAUATT against 4933424A10Rik | inactive: -0.114
GGGAAGGAAUAUGAUGGGCTT against BC033915 | inactive: -0.32
GCAGUGUCCAAAGCACUUUTT against Slc6a9 | inactive: 0.273
GGGAGAAUUUUUGUGCAAGTT against Capza3 | inactive: -0.362
CGUAAUUGUUCCAUGUAGUTT against 2700049P18Rik | inactive: 0.619
GGCACAACAUCAUCUGUCUTT against Psmd9 | inactive: -0.488
GGAGAACUAUUCAGAAACUTT against Btbd11 | inactive: -0.729
CCCAUAACAAACUAAGACGTT against Trpm4 | inactive: 0.803
GGAGUUCAACAAUGGAUUATT against 1700019M22Rik | inactive: 1.43
GGAGCAGAUACAGAAGAUCTT against Pfdn2 | inactive: -1.69
CCUUCUCAUAAGCUACGGUTT against Pms1 | inactive: 0.652
GGAAGACCAGUAGGACUAGTT against Gast | inactive: -0.095
